Laboratory results: PubChem BioAssay AID1259425 (University of Nebraska Medical Center, 2018)
Aim: 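Seek colon cancer weak points whose silencing resembles KSR1 loss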 (primary screen). Cell system: HCT116 human colon cancer cells. Reagents: siRNA pool against human genes, 50 nM siRNA. Measurement: 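mRNA of six signature genes measured together by branched-DNA assay after 50 nM siRNA pool, blank removed, divided by geometric mean of two housekeeping genes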. Scale: BNIP3L mRNA: higher = more BNIP3L transcript after knockdown; NDRG1 mRNA: higher = more NDRG1 transcript after knockdown; BNIP3 mRNA: higher = more BNIP3 transcript after knockdown.
The deposit covers about 14,000 reagents; below is a part drawn at random. A reagent listed more than once was tested more than once; the source does not tell the runs apart. Not all columns of the deposit are shown. Not stated in the record: the time to read-out.

target gene | PubChem SID | BNIP3L mRNA, set 1 | NDRG1 mRNA, set 1 | BNIP3 mRNA, set 1
LGALS2 (galectin 2) | SID363997295 | 0.25 | 0.0577 | 0.378
DDX3X (DEAD-box helicase 3 X-linked) | SID363992633 | 0.136 | 0.0649 | 0.421
CKS1B (CDC28 protein kinase regulatory subunit 1B) | SID363993041 | 0.124 | 0.0779 | 0.338
CITED4 (Cbp/p300 interacting transactivator with ED-rich tail 4) | SID364004533 | 0.126 | 0.121 | 0.319
SC5D (sterol-C5-desaturase) | SID363997672 | 0.15 | 0.609 | 0.518
MGMT (O-6-methylguanine-DNA methyltransferase) | SID363993590 | 0.112 | 0.3 | 0.34
IL6ST (interleukin 6 cytokine family signal transducer) | SID363993385 | 0.0746 | 0.0811 | 0.272
YJU2 (YJU2 splicing factor homolog) | SID364000759 | 0.14 | 0.272 | 0.395
TTC17 (tetratricopeptide repeat domain 17) | SID364000920 | 0.0585 | 0.307 | 0.174
ADRB2 (adrenoceptor beta 2) | SID363991363 | 0.175 | 0.444 | 0.346
ADRB2 (adrenoceptor beta 2) | SID363991363 | 0.161 | 0.542 | 0.322
EIF4ENIF1 | SID364001449 | 0.15 | 0.589 | 0.324
ZNF292 (zinc finger protein 292) | SID364005202 | 0.091 | 0.288 | 0.372
NDFIP1 (Nedd4 family interacting protein 1) | SID364003363 | 0.123 | 0.202 | 0.207
MPV17L2 (MPV17 mitochondrial inner membrane protein like 2) | SID364004124 | 0.243 | 0.215 | 0.102
WNT2 (Wnt family member 2) | SID363994503 | 0.0657 | 0.199 | 0.341
IRF6 (interferon regulatory factor 6) | SID363996977 | 0.09 | 0.0938 | 0.211
SOCS5 (suppressor of cytokine signaling 5) | SID363998547 | 0.163 | 0.226 | 0.541
MLLT10 (MLLT10 histone lysine methyltransferase DOT1L cofactor) | SID363995609 | 0.0881 | 0.0841 | 0.259
GALNT17 (polypeptide N-acetylgalactosaminyltransferase 17) | SID364002464 | 0.0638 | 0.0797 | 0.263
SLC18A3 | SID363994203 | 0.107 | 0.231 | 0.45
HIP1 (huntingtin interacting protein 1) | SID363996254 | 0.083 | 0.356 | 0.208
VIPAS39 | SID364002303 | 0.117 | 0.113 | 0.298
RCN1 (reticulocalbin 1) | SID363994056 | 0.0746 | 0.14 | 0.221
NME3 (NME/NM23 nucleoside diphosphate kinase 3) | SID363993685 | 0.0948 | 0.0902 | 0.266
HES4 (hes family bHLH transcription factor 4) | SID364002059 | 0.0535 | 0.163 | 0.339
ADAM30 (ADAM metallopeptidase domain 30) | SID364002179 | 0.0841 | 0.182 | 0.28
MRPL42 (mitochondrial ribosomal protein L42) | SID363998576 | 0.122 | 0.44 | 0.327
SRRM1 (serine and arginine repetitive matrix 1) | SID363996714 | 0.118 | 0.209 | 0.205
LMNB2 (lamin B2) | SID364004146 | 0.113 | 0.127 | 0.369
GATM (glycine amidinotransferase) | SID363992741 | 0.111 | 0.504 | 0.262
INHBE (inhibin subunit beta E) | SID364003659 | 0.101 | 0.0724 | 0.301
GNA14 (G protein subunit alpha 14) | SID363995291 | 0.283 | 0.385 | 0.419
XPC | SID363995596 | 0.0938 | 0.462 | 0.309

Look-ups from the entries so far.
For “NDRG1 mRNA, set 1”, HES4 (hes family bHLH transcription factor 4) [SID364002059] has 0.163
For “BNIP3L mRNA, set 1”, SOCS5 (suppressor of cytokine signaling 5) [SID363998547] is entered as 0.163
Under “BNIP3 mRNA, set 1”, IL6ST (interleukin 6 cytokine family signal transducer) [SID363993385] has 0.272
Under “BNIP3 mRNA, set 1”, SLC18A3 [SID363994203] is entered as 0.45
